Measured values from paper PMC7281231.

Experiments:
[1] = molecular target: T1, IKBKB with Myc tag (IKBKB-Myc) (UniProt O14920); assay: co-IP; HEK293T cells co-transfected with the two plasmids, lysed at 24 hpt in IP lysis buffer; cleared lysates with anti-Myc agarose overnight at 4 °C; washed with TBST (25 mM Tris-HCl, 0.15 M NaCl, 0.05% tween 20, pH 7.2); blots with anti-Flag, anti-HA and anti-Myc
T1 sequence: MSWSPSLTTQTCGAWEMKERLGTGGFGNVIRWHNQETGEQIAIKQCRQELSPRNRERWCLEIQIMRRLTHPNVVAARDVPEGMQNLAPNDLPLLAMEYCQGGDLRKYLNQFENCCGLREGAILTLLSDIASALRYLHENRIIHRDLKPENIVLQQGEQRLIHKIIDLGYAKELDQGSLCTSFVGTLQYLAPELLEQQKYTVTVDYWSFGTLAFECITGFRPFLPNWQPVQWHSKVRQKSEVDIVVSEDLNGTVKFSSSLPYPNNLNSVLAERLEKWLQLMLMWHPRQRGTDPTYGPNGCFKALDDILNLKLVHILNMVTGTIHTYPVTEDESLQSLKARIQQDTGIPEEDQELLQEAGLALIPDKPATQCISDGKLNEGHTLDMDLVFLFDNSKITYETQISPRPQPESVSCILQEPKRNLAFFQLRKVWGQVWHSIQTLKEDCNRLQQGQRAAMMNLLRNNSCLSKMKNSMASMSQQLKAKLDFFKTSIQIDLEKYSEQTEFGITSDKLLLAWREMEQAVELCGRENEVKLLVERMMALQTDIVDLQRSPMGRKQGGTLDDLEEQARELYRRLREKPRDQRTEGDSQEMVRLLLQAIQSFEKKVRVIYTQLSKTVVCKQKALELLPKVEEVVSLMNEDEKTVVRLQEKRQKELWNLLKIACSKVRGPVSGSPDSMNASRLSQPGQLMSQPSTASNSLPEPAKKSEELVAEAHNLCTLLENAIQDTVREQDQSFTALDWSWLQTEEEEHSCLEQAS

[2] = molecular target: PEDV ORF3 with Myc tag (ORF3-Myc) (porcine epidemic diarrhea virus (PEDV)); assay: as above

Molecule: PEDV ORF3 with Flag tag (ORF3-Flag) (porcine epidemic diarrhea virus (PEDV))
- binding [1]: binds

B1: inhibitor of nuclear factor kappa-B kinase subunit beta with Flag-tag at the C-terminus (IKBKB-Flag) (enzyme, UniProt O14920 1-756)
chain: T1 sequence
- binding [2]: binds

Results are given in words; binding and its absence hold for the method and conditions named. In cells and extracts the contact can be indirect. Binding can be weak; no strength is given. Where a sequence is shown, tags or fusion partners need not be part of it.
